Reference: patent publication US11293931B2, “Quantitative profiling of progesterone metabolites for the prediction of spontaneous preterm delivery” (Indiana University Research and Technology Corporation, priority 2016, dated 2022)
Some entries share one result that the patent states for a list of compounds. Some compounds share one range, which may span the group rather than tell each member. Where a SMILES comes first, the peptide text is derived from it. Bridges are numbered along the chain shown (N, C = ends). [ ]: non-standard residue; d: D form. Orn = NCCC[C@H](N)C(=O)O; Mpa = O=C(O)CCS

System: myosin light chain (MLC20) phosphorylation
Test: In-cell western (ICW) assay of myometrial contractility by MLC phosphorylation
Format: cell-based
Conditions: primary human myometrial cells treated with a 1:10 M/G ratio and stimulated with oxytocin (FIG. 10)

SMILES | decrease in MLC phosphorylation
CCCCCC(=O)O[C@]1(C(C)=O)CC[C@H]2[C@@H]3CCC4=CC(=O)CC[C@]4(C)[C@H]3CC[C@@]21C [HPC, 17α-hydroxyprogesterone caproate] | 35-40%
CC(=O)[C@H]1CC[C@H]2[C@@H]3CCC4=CC(=O)CC[C@]4(C)[C@H]3CC[C@]12C [progesterone] | 35-40%
CCOc1ccc(C[C@H]2NC(=O)CCSSC[C@@H](C(=O)N3CCC[C@H]3C(=O)N[C@@H](CCCN)C(=O)NCC(N)=O)NC(=O)[C@H](CC(N)=O)NC(=O)[C@H]([C@@H](C)O)NC(=O)[C@H]([C@@H](C)CC)NC2=O)cc1 [atosiban] ([Mpa][dY](Et)ITNCP[Orn]G-NH2; disulfide 1-6) | 35-40%
